The entries are a selection whose mix differs from that of the whole data set. The calls were merged from several studies; some rest on single wells.
Tests used:
Conditions in all cases: stereoisomer not certain
[1] = biological target: T1, OR13C2 (Homo sapiens) (UniProt Q8NGS9)
T1 sequence (whole entry): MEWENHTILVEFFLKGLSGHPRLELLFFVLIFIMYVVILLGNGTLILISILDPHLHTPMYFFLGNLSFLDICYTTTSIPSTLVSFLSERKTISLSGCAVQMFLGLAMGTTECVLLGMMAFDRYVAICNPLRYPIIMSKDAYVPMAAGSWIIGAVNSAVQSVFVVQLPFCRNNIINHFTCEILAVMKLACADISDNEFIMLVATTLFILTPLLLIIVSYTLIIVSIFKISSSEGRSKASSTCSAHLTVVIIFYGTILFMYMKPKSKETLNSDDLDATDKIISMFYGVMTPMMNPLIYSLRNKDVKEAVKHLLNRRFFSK
Summary of the method: (§1)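 Transient luciferase assays in mammalian cell lines were common, though methods varied by source. The values come from published papers and their supplementary material, with extra details from the original authors when needed. Responsive refers to a measured signal the original authors judged statistically different from baseline, and non-responsive (inactive) to the remainder.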

The chains behind the UniProt entries cited, without tags or fusion partners. Where a name states a change or a piece, a line headed by the entry shows the natural chain unless it says otherwise.
UniProt Q8NGT0: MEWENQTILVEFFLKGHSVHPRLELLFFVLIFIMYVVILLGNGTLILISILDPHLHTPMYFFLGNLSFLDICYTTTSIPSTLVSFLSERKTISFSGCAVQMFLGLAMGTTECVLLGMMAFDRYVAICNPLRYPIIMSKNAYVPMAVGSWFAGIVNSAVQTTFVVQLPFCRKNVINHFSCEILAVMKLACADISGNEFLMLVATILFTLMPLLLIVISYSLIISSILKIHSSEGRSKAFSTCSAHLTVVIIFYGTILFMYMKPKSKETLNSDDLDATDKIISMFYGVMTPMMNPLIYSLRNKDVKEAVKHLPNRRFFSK
UniProt Q8NGV5: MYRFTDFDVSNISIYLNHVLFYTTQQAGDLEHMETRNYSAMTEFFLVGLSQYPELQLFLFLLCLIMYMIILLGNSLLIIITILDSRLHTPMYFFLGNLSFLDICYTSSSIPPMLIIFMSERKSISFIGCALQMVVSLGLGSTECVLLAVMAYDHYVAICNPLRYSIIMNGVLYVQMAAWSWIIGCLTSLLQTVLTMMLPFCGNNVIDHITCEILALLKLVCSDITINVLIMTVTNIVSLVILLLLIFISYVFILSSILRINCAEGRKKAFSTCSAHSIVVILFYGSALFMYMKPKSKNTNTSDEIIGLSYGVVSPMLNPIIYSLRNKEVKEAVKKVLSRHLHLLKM
UniProt Q8NGS4: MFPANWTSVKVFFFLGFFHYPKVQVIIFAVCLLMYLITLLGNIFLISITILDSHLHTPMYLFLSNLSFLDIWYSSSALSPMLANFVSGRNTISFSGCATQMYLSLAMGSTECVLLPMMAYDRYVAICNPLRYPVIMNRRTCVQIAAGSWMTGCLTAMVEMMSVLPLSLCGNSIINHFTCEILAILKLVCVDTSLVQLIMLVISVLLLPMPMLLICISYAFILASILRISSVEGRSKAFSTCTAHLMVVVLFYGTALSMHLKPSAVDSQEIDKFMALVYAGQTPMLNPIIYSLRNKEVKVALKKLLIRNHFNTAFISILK
UniProt Q8NGZ3: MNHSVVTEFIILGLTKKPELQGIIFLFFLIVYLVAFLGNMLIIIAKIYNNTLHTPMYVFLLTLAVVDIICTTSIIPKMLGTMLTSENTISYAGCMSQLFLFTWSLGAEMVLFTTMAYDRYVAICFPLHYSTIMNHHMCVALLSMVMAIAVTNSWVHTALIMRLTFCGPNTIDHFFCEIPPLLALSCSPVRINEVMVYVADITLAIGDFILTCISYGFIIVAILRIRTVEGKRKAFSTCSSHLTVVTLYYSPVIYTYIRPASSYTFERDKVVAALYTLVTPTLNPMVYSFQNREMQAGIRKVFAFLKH

[2] = biological target: T2, OR13C3 (Homo sapiens) (UniProt Q8NGS6)
T2 sequence (whole entry): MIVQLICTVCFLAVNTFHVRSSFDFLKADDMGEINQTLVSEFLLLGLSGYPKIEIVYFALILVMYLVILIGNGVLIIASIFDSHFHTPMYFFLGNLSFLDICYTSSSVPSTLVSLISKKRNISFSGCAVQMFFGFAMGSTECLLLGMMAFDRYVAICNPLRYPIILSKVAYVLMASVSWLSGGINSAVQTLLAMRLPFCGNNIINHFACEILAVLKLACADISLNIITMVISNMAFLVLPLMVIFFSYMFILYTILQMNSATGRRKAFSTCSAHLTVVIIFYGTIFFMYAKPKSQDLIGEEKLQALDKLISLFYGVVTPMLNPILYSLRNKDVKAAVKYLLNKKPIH
Summary of the method: as §1

[3] = biological target: T3, OR13C4 (Homo sapiens) (UniProt Q8NGS5)
T3 sequence (whole entry): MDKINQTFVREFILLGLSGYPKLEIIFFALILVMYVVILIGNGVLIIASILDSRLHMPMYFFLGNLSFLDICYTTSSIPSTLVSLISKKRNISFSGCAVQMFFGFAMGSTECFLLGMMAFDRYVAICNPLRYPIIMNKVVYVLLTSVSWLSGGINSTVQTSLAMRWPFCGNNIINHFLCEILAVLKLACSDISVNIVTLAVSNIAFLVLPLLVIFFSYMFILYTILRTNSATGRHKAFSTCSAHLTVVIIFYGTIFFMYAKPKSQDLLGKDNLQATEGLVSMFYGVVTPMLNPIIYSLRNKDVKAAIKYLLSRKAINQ
Summary of the method: as §1

[4] = biological target: T4, OR13C8 (Homo sapiens) (UniProt Q8NGS7)
T4 sequence (whole entry): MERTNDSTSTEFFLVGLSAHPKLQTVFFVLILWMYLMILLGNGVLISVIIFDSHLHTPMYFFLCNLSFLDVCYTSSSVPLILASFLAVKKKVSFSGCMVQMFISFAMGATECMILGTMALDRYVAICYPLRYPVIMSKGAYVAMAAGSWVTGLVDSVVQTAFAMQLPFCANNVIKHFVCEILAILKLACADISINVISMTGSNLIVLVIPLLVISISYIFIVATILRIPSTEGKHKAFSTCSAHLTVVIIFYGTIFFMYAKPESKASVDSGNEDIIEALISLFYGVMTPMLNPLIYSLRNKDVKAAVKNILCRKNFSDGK
Summary of the method: as §1

[5] = biological target: T5, OR13H1 (Homo sapiens) (UniProt Q8NG92)
T5 sequence (whole entry): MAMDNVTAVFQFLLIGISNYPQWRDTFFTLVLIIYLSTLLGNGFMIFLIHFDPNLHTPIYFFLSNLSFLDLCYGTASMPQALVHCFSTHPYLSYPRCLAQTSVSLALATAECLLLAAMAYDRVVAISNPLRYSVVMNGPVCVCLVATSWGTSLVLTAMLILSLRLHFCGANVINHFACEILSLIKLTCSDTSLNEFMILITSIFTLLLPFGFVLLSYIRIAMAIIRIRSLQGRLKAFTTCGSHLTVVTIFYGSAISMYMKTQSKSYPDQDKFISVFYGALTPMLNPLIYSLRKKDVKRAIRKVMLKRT
Summary of the method: as §1

[6] = biological target: OR13C5 (Homo sapiens) (UniProt Q8NGS8)
Summary of the method: as §1

[7] = biological target: OR13C9 (Homo sapiens) (UniProt Q8NGT0)
Summary of the method: as §1

[8] = biological target: OR13D1 (Homo sapiens) (UniProt Q8NGV5)
Summary of the method: as §1

[9] = biological target: OR13F1 (Homo sapiens) (UniProt Q8NGS4)
Summary of the method: as §1

[10] = biological target: OR13G1 (Homo sapiens) (UniProt Q8NGZ3)
Summary of the method: as §1
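Note: active if original authors judged signal statistically different from baseline.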

SMILES	odorant receptor agonist call [1]	odorant receptor agonist call [2]	odorant receptor agonist call [3]	odorant receptor agonist call [4]	odorant receptor agonist call [5]	odorant receptor agonist call [6]	odorant receptor agonist call [7]	odorant receptor agonist call [8]	odorant receptor agonist call [9]	odorant receptor agonist call [10]
CC1CCC(C(C)C)C(O)C1 (stereo not given)	inactive	inactive	inactive	inactive	active					
CC12CCC(CC1)C(C)(C)O2	inactive	inactive	inactive	inactive	inactive					
C=CC(C)(O)CCC=C(C)C (stereo not given)	inactive	inactive	inactive	inactive	inactive					
CCCCCCCC=O	inactive	inactive	inactive	inactive	inactive					
O=CCc1ccccc1	active	inactive	inactive	inactive	inactive					
CC(C)=CCCC(C)=CC=O	inactive	inactive	inactive	inactive	inactive					
CC(=O)OC(C)(C)C1CC=C(C)CC1 (stereo not given)	inactive	inactive	inactive	inactive	inactive					
O=C1CCCCCCCCCCCC(=O)OCCO1	active	inactive	inactive	inactive	inactive					
C=CCc1ccc(OC)c(OC)c1	inactive	inactive	inactive	inactive	inactive					
CC1=CCC(C(C)(C)O)CC1 (stereo not given)	inactive	inactive	inactive	inactive	inactive					
CC(=O)OC1CC2CCC1(C)C2(C)C (stereo not given)	active	inactive	inactive	inactive	inactive					
C=CCc1ccc(OC(C)=O)c(OC)c1	active	inactive	inactive	inactive	inactive					
c1cnccn1	inactive	inactive	inactive	inactive	inactive					
CC12CCC(C1)C(C)(C)C2=O (stereo not given)	inactive	inactive	inactive	inactive	inactive					
CCCCCCCCOC(C)=O	inactive	inactive	inactive	inactive	inactive					
CC12C=CCC1C1CCC3CC(=O)CCC3(C)C1CC2 (stereo not given)	inactive	inactive	inactive	inactive	inactive	inactive	inactive	inactive	inactive	inactive

In the list so far, 2 contain an aryl methoxy group.
SMILES	odorant receptor agonist call [1]	odorant receptor agonist call [2]	odorant receptor agonist call [3]	odorant receptor agonist call [4]	odorant receptor agonist call [5]	odorant receptor agonist call [6]	odorant receptor agonist call [7]	odorant receptor agonist call [8]	odorant receptor agonist call [9]	odorant receptor agonist call [10]
C=CCc1ccc(OC)c(OC)c1	inactive	inactive	inactive	inactive	inactive					
C=CCc1ccc(OC(C)=O)c(OC)c1	active	inactive	inactive	inactive	inactive					
